doi:10.1101/2025.09.08.674948
Results are given in words; binding and its absence hold for the method and conditions named. In cells and extracts the contact can be indirect. Here binding means that the protein was enriched with, or labelled near, the bait; the list need not be complete.

Tests used:
HLA-A2-TurboID (human) = assay: proximity labelling
HLA-A2-BioID2 (human) = assay: proximity labelling

Binder	binding (HLA-A2-TurboID (human))	binding (HLA-A2-BioID2 (human))
MGAT2 (enzyme, UniProt Q10469 1-447) MRFRIYKRKVLILTLVVAACGFVLWSSNGRQRKNEALAPPLLDAEPARGAGGRGGDHPSVAVGIRRVSNVSAASLVPAVPQPEADNLTLRYRSLVYQLNFDQTLRNVDKAGTWAPRELVLVVQVHNRPEYLRLLLDSLRKAQGIDNVLVIFSHDFWSTEINQLIAGVNFCPVLQVFFPFSIQLYPNEFPGSDPRDCPRDLPKNAALKLGCINAEYPDSFGHYREAKFSQTKHHWWWKLHFVWERVKILRDYAGLILFLEEDHYLAPDFYHVFKKMWKLKQQECPECDVLSLGTYSASRSFYGMADKVDVKTWKSTEHNMGLALTRNAYQKLIECTDTFCTYDDYNWDWTLQYLTVSCLPKFWKVLVPQIPRIFHAGDCGMHHKKTCRPSTQSAQIESLLNNNKQYMFPETLTISEKFTVVAISPPRKNGGWGDIRDHELCKSYRRLQ		binds
MGAT1 (enzyme, UniProt P26572 1-445) MLKKQSAGLVLWGAILFVAWNALLLLFFWTRPAPGRPPSVSALDGDPASLTREVIRLAQDAEVELERQRGLLQQIGDALSSQRGRVPTAAPPAQPRVPVTPAPAVIPILVIACDRSTVRRCLDKLLHYRPSAELFPIIVSQDCGHEETAQAIASYGSAVTHIRQPDLSSIAVPPDHRKFQGYYKIARHYRWALGQVFRQFRFPAAVVVEDDLEVAPDFFEYFRATYPLLKADPSLWCVSAWNDNGKEQMVDASRPELLYRTDFFPGLGWLLLAELWAELEPKWPKAFWDDWMRRPEQRQGRACIRPEISRTMTFGRKGVSHGQFFDQHLKFIKLNQQFVHFTQLDLSYLQREAYDRDFLARVYGAPQLQVEKVRTNDRKELGEVRVQYTGRDSFKAFAKALGVMDDLKSGVPRAGYRGIVTFQFRGRRVHLAPPLTWEGYDPSWN		binds

The next lines start with the values.

binding (HLA-A2-TurboID (human))	binding (HLA-A2-BioID2 (human))	Binder
binds		TIGAR (enzyme, UniProt Q9NQ88 1-270) MARFALTVVRHGETRFNKEKIIQGQGVDEPLSETGFKQAAAAGIFLNNVKFTHAFSSDLMRTKQTMHGILERSKFCKDMTVKYDSRLRERKYGVVEGKALSELRAMAKAAREECPVFTPPGGETLDQVKMRGIDFFEFLCQLILKEADQKEQFSQGSPSNCLETSLAEIFPLGKNHSSKVNSDSGIPGLAASVLVVSHGAYMRSLFDYFLTDLKCSLPATLSRSELMSVTPNTGMSLFIINFEEGREVKPTVQCICMNLQDHLNGLTETR
binds		SLC37A4 (protein, UniProt O43826 1-429) MAAQGYGYYRTVIFSAMFGGYSLYYFNRKTFSFVMPSLVEEIPLDKDDLGFITSSQSAAYAISKFVSGVLSDQMSARWLFSSGLLLVGLVNIFFAWSSTVPVFAALWFLNGLAQGLGWPPCGKVLRKWFEPSQFGTWWAILSTSMNLAGGLGPILATILAQSYSWRSTLALSGALCVVVSFLCLLLIHNEPADVGLRNLDPMPSEGKKGSLKEESTLQELLLSPYLWVLSTGYLVVFGVKTCCTDWGQFFLIQEKGQSALVGSSYMSALEVGGLVGSIAAGYLSDRAMAKAGLSNYGNPRHGLLLFMMAGMTVSMYLFRVTVTSDSPKLWILVLGAVFGFSSYGPIALFGVIANESAPPNLCGTSHAIVGLMANVGGFLAGLPFSTIAKHYSWSTAFWVAEVICAASTAAFFLLRNIRTKMGRVSKKAE
